Test results taken from patent US20190218304A1, “POTENTIATING THE EFFECT OF ATP RELEASE” (INNATE PHARMA, priority 2017, published 2019).
These are yes or no findings as the source states them, for the method shown. Some binding calls cover weakened binding; strength is not graded here.

Molecular target: T1, CD39 mutant 9 (human) (UniProt P49961)
T1 sequence: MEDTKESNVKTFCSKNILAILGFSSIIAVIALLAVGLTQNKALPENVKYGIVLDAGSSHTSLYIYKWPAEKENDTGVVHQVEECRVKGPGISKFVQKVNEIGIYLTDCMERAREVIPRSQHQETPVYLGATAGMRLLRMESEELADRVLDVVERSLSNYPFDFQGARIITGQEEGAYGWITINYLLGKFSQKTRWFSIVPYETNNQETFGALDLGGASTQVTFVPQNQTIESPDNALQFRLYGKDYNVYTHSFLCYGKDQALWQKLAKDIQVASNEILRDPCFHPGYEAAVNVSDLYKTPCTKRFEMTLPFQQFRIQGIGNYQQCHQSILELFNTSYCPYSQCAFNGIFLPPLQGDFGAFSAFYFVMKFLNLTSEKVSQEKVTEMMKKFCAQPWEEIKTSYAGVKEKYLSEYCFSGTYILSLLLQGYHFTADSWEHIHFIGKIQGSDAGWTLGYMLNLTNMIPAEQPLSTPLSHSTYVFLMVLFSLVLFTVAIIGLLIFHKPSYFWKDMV
Experiment: flow cytometry on transfected Hek-293T cells

- binding: binds
B1: antibody I-399 (antibody, V domains shown)
VH: PVQLQQPGAEVVMPGASVKLSCKASGYTFTSFWMNWMRQRPGQGLEWIGEIDPSDFYTNSNQRFKGKATLTVDKSSSTAYMQLSSLTSEDSAVYFCARGDFGWYFDVWGTGTSVTVSS
VL: EIVLTQSPTTMTSSPGEKITFTCSASSSINSNYLHWYQQKPGFSPKLLIYRTSNLASGVPTRFSGSGSGTSYSLTIGTMEAEDVATYYCQQGSSLPRTFGGGTKLEIK
